Drawing on publication PMC5115890, this text covers binding for four substances.

Sequences of proteins named here, by UniProt entry; tags and fusion partners are left off.
UniProt Q8N6T7: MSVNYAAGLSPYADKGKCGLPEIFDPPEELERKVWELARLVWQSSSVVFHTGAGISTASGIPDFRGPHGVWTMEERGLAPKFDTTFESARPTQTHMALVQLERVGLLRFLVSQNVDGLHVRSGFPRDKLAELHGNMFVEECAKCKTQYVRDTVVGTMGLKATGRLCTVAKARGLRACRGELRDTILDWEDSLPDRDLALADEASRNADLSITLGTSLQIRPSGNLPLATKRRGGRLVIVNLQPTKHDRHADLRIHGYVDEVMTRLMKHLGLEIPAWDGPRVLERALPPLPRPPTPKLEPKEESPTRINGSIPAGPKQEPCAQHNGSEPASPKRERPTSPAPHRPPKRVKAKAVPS
UniProt P46527: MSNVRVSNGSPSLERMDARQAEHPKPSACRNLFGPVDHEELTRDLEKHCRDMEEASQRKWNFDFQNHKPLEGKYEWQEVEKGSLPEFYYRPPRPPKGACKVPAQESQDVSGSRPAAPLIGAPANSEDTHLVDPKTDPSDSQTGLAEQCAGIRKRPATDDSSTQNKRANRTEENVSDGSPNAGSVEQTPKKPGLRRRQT

Results are given in words; binding and its absence hold for the method and conditions named. In cells and extracts the contact can be indirect. Some results given as binding are weak or reduced against the parent protein; the word gives no strength.

For test [1], the target named is SIRT6 (Sirtuin6), endogenous (human (endogenous in HEK293)) (UniProt Q8N6T7). The test is described as follows: co-IP; endogenous SIRT6 and p27 in 293 cells; lysis buffer 25 mM Tris-HCl pH 7.4, 150 mM NaCl, 1% Nonidet P-40, 1 mM EDTA, 5% glycerol; antibody overnight at 4°C.
For test [2], the target named is flag-SIRT6 (UniProt Q8N6T7). The experiment in a line: co-IP; 293 cells transfected with flag-SIRT6 or flag-ΔSIRT6; IP with flag antibody; blots with flag and p27 antibody.
Test [3] addresses flag-SIRT6 (UniProt Q8N6T7). The test is described as follows: co-IP; 293 cells co-transfected with flag-SIRT6 and myc-p27; IP with flag antibody; lysis buffer 25 mM Tris-HCl pH 7.4, 150 mM NaCl, 1% Nonidet P-40, 1 mM EDTA, 5% glycerol.
Test [4] has as its target GST-p27 (UniProt P46527). The test is described as follows: pull-down; purified GST fusion immobilised on glutathione-conjugated sepharose beads, incubated with in vitro transcribed/translated protein for 4 h at 4°C; Western blot; only the target purified. In general terms: In western blotting, separated proteins are transferred to a membrane and probed.
Test [5] has as its target GST-SIRT6 (UniProt Q8N6T7). The test is described as above.

In the case of “p27Kip1 (p27), endogenous (from UniProt P46527 1-198)”, the binding entry in test [1] and in test [2] was “binds” in each case.

On to myc-p27 (from UniProt P46527 1-198), for which the binding entry in test [3] was “binds”.

On to “in vitro transcribed and translated SIRT6 (from UniProt Q8N6T7 1-355)”, for which the binding result in test [4] is reported as “binds”.

Regarding “in vitro transcribed and translated p27 (from UniProt P46527 1-198)”, the binding result in test [5] is listed as “binds”.
